PubChem BioAssay AID504804 | Drosophila RNAi Screening Center | 2011
In all, the deposit lists about 19,000 reagents; this is an unselected part of those that have a named target and a result. Of all reagents, 47 (0.25%) got an active call. 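Signals are raw, not normalised; exact z-scores behind calls not deposited; actives needed confirmation, so some wells reaching 2 SD are inactive.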 A plus sign joins genes that one reagent is predicted to hit. Reagent sequences are not shown.

Assay: 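Fly genes whose loss lessens doxorubicin-driven cell death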 (primary screen)
System: Drosophila Kc cells
Reagent: long dsRNA against Drosophila genes, 0.5 µg dsRNA per well
Timing: 96 h (48 h knock-down, then 48 h drug)
Conditions: doxorubicin 5 µg/ml for 48 h, added 48 h after dsRNA
Measured: 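Luminescent ATP counts per replicate, not normalised, reflecting viable cells after 48 h dsRNA knock-down followed by 48 h of 5 µg/ml doxorubicin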
Reading the numbers: raw ATP luminescence: higher = more viable cells, protection from doxorubicin
Hit rule: 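Active when both duplicate wells lie at least 2 SD above the plate mean and protection is confirmed by rescreening and independent dsRNAs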

CG14085 [DRSC10089] — raw ATP luminescence, replicate 1 = 73677; raw ATP luminescence, replicate 2 = 74287; Call = inactive
Vha16-3 (Vacuolar H[+] ATPase 16kD subunit 3) [DRSC10872] — raw ATP luminescence, replicate 1 = 75563; raw ATP luminescence, replicate 2 = 56190; Call = inactive
CG7668 [DRSC10901] — raw ATP luminescence, replicate 1 = 29337; raw ATP luminescence, replicate 2 = 25163; Call = inactive
CG10013 [DRSC14175] — raw ATP luminescence, replicate 1 = 55103; raw ATP luminescence, replicate 2 = 26500; Call = inactive
CG4546 [DRSC15593] — raw ATP luminescence, replicate 1 = 1.05e5; raw ATP luminescence, replicate 2 = 88950; Call = inactive
kipf (kipferl) [DRSC15446] — raw ATP luminescence, replicate 1 = 74963; raw ATP luminescence, replicate 2 = 66427; Call = inactive
dsx-c73A (doublesex cognate 73A) [DRSC09435] — raw ATP luminescence, replicate 1 = 89163; raw ATP luminescence, replicate 2 = 87300; Call = inactive
dsx-c73A (doublesex cognate 73A) [DRSC09914] — raw ATP luminescence, replicate 1 = 54520; raw ATP luminescence, replicate 2 = 53013; Call = inactive
dsx-c73A (doublesex cognate 73A) [DRSC10429] — raw ATP luminescence, replicate 1 = 75210; raw ATP luminescence, replicate 2 = 63893; Call = inactive
Gyc32E (Guanylyl cyclase at 32E) [DRSC01154] — raw ATP luminescence, replicate 1 = 2.81e5; raw ATP luminescence, replicate 2 = 3.33e5; Call = inactive
CG33792 [DRSC05355] — raw ATP luminescence, replicate 1 = 94620; raw ATP luminescence, replicate 2 = 1.07e5; Call = inactive
zpg (zero population growth) [DRSC09702] — raw ATP luminescence, replicate 1 = 76523; raw ATP luminescence, replicate 2 = 75173; Call = inactive
CG34429 [DRSC10120] — raw ATP luminescence, replicate 1 = 77580; raw ATP luminescence, replicate 2 = 1.63e5; Call = inactive
HemK1 (HemK methyltransferase 1) [DRSC03253] — raw ATP luminescence, replicate 1 = 79063; raw ATP luminescence, replicate 2 = 69463; Call = inactive
CG9346 [DRSC04542] — raw ATP luminescence, replicate 1 = 79260; raw ATP luminescence, replicate 2 = 61767; Call = inactive
Cf2 (Chorion factor 2) [DRSC00744] — raw ATP luminescence, replicate 1 = 12733; raw ATP luminescence, replicate 2 = 16840; Call = inactive
CG7194 [DRSC10784] — raw ATP luminescence, replicate 1 = 61430; raw ATP luminescence, replicate 2 = 69910; Call = inactive
His2B:CG33894 + His2B:CG33872 + His2B:CG33902 + 20 more [DRSC21265] — raw ATP luminescence, replicate 1 = 1.92e5; raw ATP luminescence, replicate 2 = 1.58e5; Call = inactive
Mitofilin [DRSC16742] — raw ATP luminescence, replicate 1 = 33860; raw ATP luminescence, replicate 2 = 54997; Call = inactive
Polr2G (RNA polymerase II subunit G) [DRSC16068] — raw ATP luminescence, replicate 1 = 33203; raw ATP luminescence, replicate 2 = 29317; Call = inactive
l(3)S110416 (retired record) [DRSC17094] — raw ATP luminescence, replicate 1 = 37747; raw ATP luminescence, replicate 2 = 40693; Call = inactive
CG7706 [DRSC16295] — raw ATP luminescence, replicate 1 = 46407; raw ATP luminescence, replicate 2 = 60140; Call = inactive
CG15635 [DRSC00470] — raw ATP luminescence, replicate 1 = 33560; raw ATP luminescence, replicate 2 = 46523; Call = inactive
Eig71Ea (Ecdysone-induced gene 71Ea) [DRSC11148] — raw ATP luminescence, replicate 1 = 71167; raw ATP luminescence, replicate 2 = 61933; Call = inactive
fs(1)N (female sterile (1) Nasrat) [DRSC18578] — raw ATP luminescence, replicate 1 = 42580; raw ATP luminescence, replicate 2 = 55990; Call = inactive
CG18549 [DRSC15347] — raw ATP luminescence, replicate 1 = 60890; raw ATP luminescence, replicate 2 = 43117; Call = inactive
CG6028 [DRSC15951] — raw ATP luminescence, replicate 1 = 60600; raw ATP luminescence, replicate 2 = 48113; Call = inactive
wek (weckle) [DRSC03561] — raw ATP luminescence, replicate 1 = 88710; raw ATP luminescence, replicate 2 = 71597; Call = inactive

Records listed so far whose target name begins with D or d:
dsx-c73A (doublesex cognate 73A) [DRSC09435] — raw ATP luminescence, replicate 1 = 89163; raw ATP luminescence, replicate 2 = 87300; Call = inactive
dsx-c73A (doublesex cognate 73A) [DRSC09914] — raw ATP luminescence, replicate 1 = 54520; raw ATP luminescence, replicate 2 = 53013; Call = inactive
dsx-c73A (doublesex cognate 73A) [DRSC10429] — raw ATP luminescence, replicate 1 = 75210; raw ATP luminescence, replicate 2 = 63893; Call = inactive
